Consider 1 substance from article PMC8080784.

By UniProt entry, the sequences of proteins in these tests, tags left out.
UniProt P18901: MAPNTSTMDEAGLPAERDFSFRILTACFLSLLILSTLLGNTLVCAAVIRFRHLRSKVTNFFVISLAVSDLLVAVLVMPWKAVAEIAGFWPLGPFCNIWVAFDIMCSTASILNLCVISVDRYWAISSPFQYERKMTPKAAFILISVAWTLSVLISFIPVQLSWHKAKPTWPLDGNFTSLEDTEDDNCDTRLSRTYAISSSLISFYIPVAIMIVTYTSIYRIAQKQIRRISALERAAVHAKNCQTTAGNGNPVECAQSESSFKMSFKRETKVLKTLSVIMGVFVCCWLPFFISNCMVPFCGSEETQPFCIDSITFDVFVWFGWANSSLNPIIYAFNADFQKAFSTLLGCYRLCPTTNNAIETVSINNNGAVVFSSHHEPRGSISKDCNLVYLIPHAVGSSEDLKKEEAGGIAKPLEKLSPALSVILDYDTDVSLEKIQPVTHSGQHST

These are yes or no findings as the source states them, for the method shown. Binding seen in cells or lysates may run through a third protein. Some entries that bind do so weakly or less than the wild type.

In the assay the target is Dopamine D1 receptor (rat (endogenous in spinal cord)) (UniProt P18901). In words: co-IP; D1DR antibody or D2DR antibody (10 μg) coupled to NHS-activated magnetic beads; lysate of rat L4–L6 spinal cord in RIPA buffer (10 mM NaF, 30 mM HEPES, 150 mM NaCl, 1% Triton, 0.01% SDS), 4 h at RT; Western blot; CCI rats, also after intrathecal SCH-23390, L-741,626 (20 μg/20 μL) or l-CDL (15 μg/20 μL). (Immunoblotting shows a protein as a band on a membrane.)

“Dopamine D2 receptor (from UniProt P61169-1 1-444)”: the binding result is “binds”.
